This test deals with NLRP3 protein (construct of Supplementary Fig. 4 and 5a, tag not shown) (UniProt Q96P20). As to the kind of experiment: co-IP.

The chains behind the UniProt entries cited, without tags or fusion partners.
UniProt Q96P20: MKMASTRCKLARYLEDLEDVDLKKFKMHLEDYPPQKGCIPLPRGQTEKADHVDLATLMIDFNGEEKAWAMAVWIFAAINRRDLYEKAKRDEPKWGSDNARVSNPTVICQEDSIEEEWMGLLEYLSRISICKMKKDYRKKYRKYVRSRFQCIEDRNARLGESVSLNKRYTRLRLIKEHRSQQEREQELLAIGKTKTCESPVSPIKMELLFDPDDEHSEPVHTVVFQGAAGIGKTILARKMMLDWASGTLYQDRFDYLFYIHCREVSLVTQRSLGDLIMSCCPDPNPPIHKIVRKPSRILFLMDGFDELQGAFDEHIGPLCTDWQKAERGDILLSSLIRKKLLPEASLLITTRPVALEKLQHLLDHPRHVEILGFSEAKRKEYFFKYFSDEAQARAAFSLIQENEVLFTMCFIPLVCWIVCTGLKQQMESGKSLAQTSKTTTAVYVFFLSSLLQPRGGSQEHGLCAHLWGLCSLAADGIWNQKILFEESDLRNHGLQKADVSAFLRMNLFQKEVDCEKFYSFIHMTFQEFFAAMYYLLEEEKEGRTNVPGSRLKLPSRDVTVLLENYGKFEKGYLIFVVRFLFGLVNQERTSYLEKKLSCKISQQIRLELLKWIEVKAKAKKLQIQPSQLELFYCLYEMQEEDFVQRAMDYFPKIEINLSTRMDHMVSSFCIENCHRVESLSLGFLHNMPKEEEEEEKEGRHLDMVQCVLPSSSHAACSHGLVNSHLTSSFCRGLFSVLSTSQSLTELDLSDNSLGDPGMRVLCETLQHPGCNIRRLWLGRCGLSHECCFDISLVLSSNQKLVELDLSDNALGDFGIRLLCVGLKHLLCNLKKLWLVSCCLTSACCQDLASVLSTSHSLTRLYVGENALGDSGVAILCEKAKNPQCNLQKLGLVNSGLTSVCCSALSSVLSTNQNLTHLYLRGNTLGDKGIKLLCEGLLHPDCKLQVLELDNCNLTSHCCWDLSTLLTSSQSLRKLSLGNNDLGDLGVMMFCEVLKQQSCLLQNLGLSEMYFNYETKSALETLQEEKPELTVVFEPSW
UniProt P0DTC3: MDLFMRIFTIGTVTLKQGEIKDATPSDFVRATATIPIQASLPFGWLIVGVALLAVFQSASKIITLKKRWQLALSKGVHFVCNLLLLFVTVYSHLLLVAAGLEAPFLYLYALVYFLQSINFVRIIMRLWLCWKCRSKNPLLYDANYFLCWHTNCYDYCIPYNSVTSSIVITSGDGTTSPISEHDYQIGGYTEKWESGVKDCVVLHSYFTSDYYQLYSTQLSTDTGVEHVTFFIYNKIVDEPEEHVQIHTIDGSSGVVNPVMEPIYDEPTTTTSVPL

These are yes or no findings as the source states them, for the method shown. Binding seen in cells or lysates may run through a third protein.

With “SARS-CoV-2 3a protein (from UniProt P0DTC3 1-275)”, the binding entry is “no binding”.

The record behind these values is PMC8329225.
